Assay results: patent US20190269614A1, “CHEWABLE TABLET CONTAINING VITAMIN C SODIUM AND PREPARATION METHOD THEREOF” (GUANGXI SANPOTEL HEALTH INDUSTRY CO. LTD, priority 2016, published 2019)

assay: Comparison of sweeteners (flavoring agent selection) in the chewable tablet; conditions: sweetener 10-30 parts in combination with mint essence

Taste and flavor, taste and flavor were good:
COC(=O)[C@H](Cc1ccccc1)NC(=O)[C@@H](N)CC(=O)O [aspartame] (H-Asp-Phe-OMe)
COC(=O)[C@H](Cc1ccccc1)NC(=O)[C@H](CC(=O)O)NCCC(C)(C)C [neotame]
mogroside

Some entries repeat one wording, which the source may state once for all of them. Where a SMILES comes first, the peptide text is derived from it.
